At least one compound was matched to its structure with a doubt left. Some entries share one result that the patent states for a list of compounds. Some ranges recur; such a range may be that of the whole group of compounds.
Experiments:
RSV [1] = test: Western blot analysis of phospholipid interference with RSV binding to HEp2 cells; type: cell-based, human RSV A2 strain; settings: 50 μg/mL lipid, MOI 2.5, 2 hr
Protocol: HEp2 cells were plated in a 48-well plate at a density of 1×10^5 per well, 48-hours prior to performing binding studies. A multiplicity of infection (MOI) of 2.5 was used and conditions of a control with no RSV, RSV alone and RSV plus 50 μg/mL of selected lipids were added to cells for a 2-hour incubation at 18° C. This lower temperature was used so that RSV would adsorb to the cell surface with minimal endocytosis. After binding, cells were washed 4 times with cold PBS to remove any unattached virus. 80 μL of SDS-PAGE loading buffer (sample buffer+protease inhibitor+DTT) was added to each well and the plate was set in boiling water for 1 minute to lyse cells and solubilize proteins. Cell lysates were recovered by scraping and pipteing and stored at −20° C. Subsequently, thawed lysates were boiled for 5 min, and proteins were resolved on 8-16% gradient Tris-SDS-polyacrylamide gels. The separated proteins were transferred to nitrocellulose membranes and subsequently incubated in blocking buffer containing 20 mM Tris-HCl buffer (pH 7.6), 137 mM NaCl, 0.1% Tween 20, and 5% nonfat milk for 1 hour. After blocking, primary RSV antibody conjugated to HRP was diluted 1:500 in blocking solution, added to the membrane and incubated overnight at 4° C. The membranes were washed with TBS containing 0.1% Tween for 30 min, replacing the buffer every 10 min. The immunoreactive protein was detected using coumaric acid and luminol reagents and exposed to film. Developed films were scanned and Image J software was used for protein quantification. Beta-Actin was used a control for amount of protein loaded.
Because binding of lipid to RSV in a biochemical assay was not a good predictor of antiviral activity, PX lipids were tested for activity preventing viral attachment to the surface of cells. HEp2 cells were plated in a 48-well plate at a density of 1×10^5 per well, 48 hours prior to viral adsorption. RSV was added to cells at multiplicity of infection (MOI) 2.5 in the absence or presence of 50 μg/mL of select xylitol lipids. […] The moderately effective antiviral, DPPX was selected and the ineffective antiviral, 14:0 DEPX was selected. Viral adsorption to cells was performed at 18° C. to minimize endocytosis. RSV was incubated with HEp2 cells for 2 hours, rotating the plate every 30 minutes. Cells were washed with cold PBS to remove unbound virus and cells were lysed and collected. […] The RSV G protein was detected with antibody and Beta-actin was used as a protein loading control. The results are summarized and quantified in FIGS. 9A and 9B. […] Viral proteins were detected by immunoblotting with polyclonal anti-RSV antibody and enhanced chemiluminescence. […] The immunoreactive viral proteins were quantified using Image J software. […]

Protein sequences, listed by entry. Tags and fused reporters are not part of them. Residues count along the entry.
UniProt Q9QUN7, 25-784: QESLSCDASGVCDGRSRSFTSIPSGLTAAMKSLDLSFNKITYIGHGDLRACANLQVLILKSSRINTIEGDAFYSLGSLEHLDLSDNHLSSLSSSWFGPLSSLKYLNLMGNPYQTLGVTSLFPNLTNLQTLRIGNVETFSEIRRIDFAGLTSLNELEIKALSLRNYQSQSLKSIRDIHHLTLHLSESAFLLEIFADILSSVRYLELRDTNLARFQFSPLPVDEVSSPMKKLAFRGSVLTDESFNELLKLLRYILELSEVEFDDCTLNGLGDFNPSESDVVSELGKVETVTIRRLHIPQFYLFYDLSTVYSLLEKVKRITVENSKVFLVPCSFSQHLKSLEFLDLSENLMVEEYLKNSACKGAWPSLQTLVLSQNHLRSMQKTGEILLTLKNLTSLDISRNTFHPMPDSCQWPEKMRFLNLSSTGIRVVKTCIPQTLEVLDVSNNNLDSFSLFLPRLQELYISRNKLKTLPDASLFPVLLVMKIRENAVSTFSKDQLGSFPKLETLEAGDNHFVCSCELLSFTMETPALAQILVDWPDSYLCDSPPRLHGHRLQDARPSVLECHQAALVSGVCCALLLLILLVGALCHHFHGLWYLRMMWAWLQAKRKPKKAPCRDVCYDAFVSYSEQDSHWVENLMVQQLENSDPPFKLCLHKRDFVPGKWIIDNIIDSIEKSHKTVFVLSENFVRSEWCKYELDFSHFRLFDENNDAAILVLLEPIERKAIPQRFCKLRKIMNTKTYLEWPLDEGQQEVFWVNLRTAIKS
UniProt O60602, 21-858: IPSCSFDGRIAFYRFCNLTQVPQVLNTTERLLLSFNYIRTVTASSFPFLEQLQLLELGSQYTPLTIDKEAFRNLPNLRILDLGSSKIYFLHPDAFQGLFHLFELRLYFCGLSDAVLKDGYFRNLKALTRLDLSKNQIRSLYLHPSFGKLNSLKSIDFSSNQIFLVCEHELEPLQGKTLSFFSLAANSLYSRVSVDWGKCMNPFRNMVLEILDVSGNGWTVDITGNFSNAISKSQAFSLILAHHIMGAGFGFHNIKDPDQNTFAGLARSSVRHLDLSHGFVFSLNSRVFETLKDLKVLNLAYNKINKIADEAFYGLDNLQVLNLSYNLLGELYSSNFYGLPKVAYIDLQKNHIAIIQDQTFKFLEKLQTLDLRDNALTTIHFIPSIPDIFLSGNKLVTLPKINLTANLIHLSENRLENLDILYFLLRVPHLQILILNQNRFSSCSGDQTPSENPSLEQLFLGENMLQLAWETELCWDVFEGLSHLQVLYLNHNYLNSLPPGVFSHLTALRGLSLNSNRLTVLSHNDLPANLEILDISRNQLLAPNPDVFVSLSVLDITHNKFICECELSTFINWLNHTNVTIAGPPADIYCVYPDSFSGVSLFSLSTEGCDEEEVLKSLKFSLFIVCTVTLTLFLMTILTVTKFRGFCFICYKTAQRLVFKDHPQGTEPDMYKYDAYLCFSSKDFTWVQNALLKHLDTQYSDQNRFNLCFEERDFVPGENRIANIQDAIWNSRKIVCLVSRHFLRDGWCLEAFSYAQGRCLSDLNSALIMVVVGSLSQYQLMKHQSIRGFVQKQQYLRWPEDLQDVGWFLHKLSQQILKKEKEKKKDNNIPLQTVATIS

TLR 2/6 = target: T1, TLR 2/6 (Mus musculus, UniProt Q9QUN7); test: MALP-2-induced TNFα secretion by RAW264.7 cells (TLR 2/6 antagonism); type: cell-based; settings: reduction in cytokine secretion vs activating TLR ligand alone
T1 construct: A RAW264.7 cell line was used with the TLR 2/6 agonist, MALP-2; endogenous in cells; host or cells: RAW264.7 (ATCC)

TLR 9 = target: T2, TLR 9 (Mus musculus, UniProt Q9EQU3); test: CpG-induced TNFα secretion by RAW264.7 cells (TLR 9 antagonism); type: cell-based; settings: reduction in cytokine secretion vs activating TLR ligand alone
T2 construct: RAW264.7 cells secrete TNF-α in response to the TLR9 agonist CpG; endogenous in cells; host or cells: RAW264.7 (ATCC)
T2 sequence (Q9EQU3 26-1032): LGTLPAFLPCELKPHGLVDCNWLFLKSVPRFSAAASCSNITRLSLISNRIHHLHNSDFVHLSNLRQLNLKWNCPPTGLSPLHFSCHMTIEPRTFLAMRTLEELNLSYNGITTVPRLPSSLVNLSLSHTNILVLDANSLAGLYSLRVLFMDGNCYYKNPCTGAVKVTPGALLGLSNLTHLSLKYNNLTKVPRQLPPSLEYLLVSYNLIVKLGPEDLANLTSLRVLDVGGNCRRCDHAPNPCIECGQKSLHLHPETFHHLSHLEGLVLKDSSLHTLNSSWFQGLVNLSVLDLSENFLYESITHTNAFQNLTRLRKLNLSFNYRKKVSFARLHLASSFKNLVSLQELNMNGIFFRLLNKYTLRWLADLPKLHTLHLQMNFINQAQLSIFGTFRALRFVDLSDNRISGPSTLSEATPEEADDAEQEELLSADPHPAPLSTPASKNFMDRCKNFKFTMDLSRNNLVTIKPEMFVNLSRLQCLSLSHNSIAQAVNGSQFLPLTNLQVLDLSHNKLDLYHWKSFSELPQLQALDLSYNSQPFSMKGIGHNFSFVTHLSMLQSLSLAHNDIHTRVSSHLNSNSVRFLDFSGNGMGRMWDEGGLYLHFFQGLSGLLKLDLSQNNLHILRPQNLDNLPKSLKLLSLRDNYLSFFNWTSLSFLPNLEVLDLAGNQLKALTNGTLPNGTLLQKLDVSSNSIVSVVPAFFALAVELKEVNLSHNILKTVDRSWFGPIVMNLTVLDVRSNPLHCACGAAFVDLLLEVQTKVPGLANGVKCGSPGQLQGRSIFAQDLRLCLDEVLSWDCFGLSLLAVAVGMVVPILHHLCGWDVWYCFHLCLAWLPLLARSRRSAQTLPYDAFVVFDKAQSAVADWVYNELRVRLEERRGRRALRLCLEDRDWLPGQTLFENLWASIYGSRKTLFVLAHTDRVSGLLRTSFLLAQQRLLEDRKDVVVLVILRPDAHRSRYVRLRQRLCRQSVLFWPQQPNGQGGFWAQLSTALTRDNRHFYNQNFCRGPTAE
Protocol: The mouse macrophage cell line, RAW264.7, was obtained from ATCC and maintained in DMEM, supplemented with 10% bovine growth serum and 1× penicillin streptomycin. Cells were maintained at 37° C. with 5% carbon dioxide: 95% air atmosphere within the incubator. Experiments were completed in a 96-well plate where cells were seated at a density of 1×10^5 cells per well, 24 prior to stimulation with TLR agonists and antagonists. Lipids were dried under a stream of nitrogen, hydrated with phosphate-buffered saline (PBS) at 37° C. for one hour, followed by water bath sonication to create liposomes. Each condition for cell stimulation and antagonism was prepared in DMEM in a separate tube and consisted of: control, TLR agonist, TLR agonist+lipid, and lipid alone. 100 μL aliquots of medium+agonists+antagonists were added to each well and incubated at 37° C. for 4 hours. Subsequently, the media were collected, diluted and an enzyme-linked immunosorbent assay (ELISA) was performed to quantify TNFα release by cells.
TLR 9 is another member of the intracellular TLRs found in the endosomal compartment. […]

RSV [2] = test: Quantitative RSV plaque assay in HEp2 cells; type: cell-based, human RSV A2 strain
Protocol: Viral stocks were propagated in HEp2 cell monolayers using DMEM/Ham's F12 Medium (GIBCO), plus 5% bovine growth serum (Hyclone) with 1× penicillin streptomycin, and virus was purified using methods previously described [M. Numata, H. W. Chu, A. Dakhama, and D. R. Voelker, “Pulmonary surfactant phosphatidylglycerol inhibits respiratory syncytial virus-induced inflammation and infection.,” Proc. Natl. Acad. Sci. U.S.A., vol. 107, no. 1, pp. 320-5, 2010.]. Viral titers and growth were measured by plaque assays [J. L. McKimm-Breschkin, “A simplified plaque assay for respiratory syncytial virus—direct visualization of plaques without immunostaining,” 2004.]. The antiviral activity of xylitol-headgroup lipids was determined by in vitro RSV infection in the presence or absence of lipid and infectious particles were quantified by viral plaque assay. […] On day 6 the cells were fixed overnight with formalin and then stained with a neutral red stain and viral plaques were quantified visually.
An optimized quantitative plaque assay (described for RSV by J. L. McKimm-Breschkin, “A simplified plaque assay for respiratory syncytial virus-direct visualization of plaques without immunostaining,” 2004) was applied to survey the ability of PX lipids to inhibit RSV infection. […] The sole xylitol analog that was determined ineffective was saturated and ether-linked.

TLR 5 = target: T3, TLR 5 (Homo sapiens, UniProt O60602); test: Flagellin-induced IL-8 in BEAS2B cells (TLR 5 antagonism); type: cell-based; settings: reduction in cytokine secretion vs activating TLR ligand alone
T3 construct: endogenous in cells; host or cells: BEAS2B (ATCC)
Protocol: Human bronchial epithelial cells, BEAS2B, were obtained from ATCC and maintained in bronchial epithelial cell growth medium (BEGM), supplemented with the BulleKit from Lonza in accordance with protocol (M. H. Hudy, S. et al., “Cigarette smoke modulates rhinovirus-induced airway epithelial cell chemokine production.,” Eur. Respir. J., vol. 35, no. 6, pp. 1256-63, June 2010). Cells were cultured at 37 C with 5% carbon dioxide:95% air atmosphere maintained within the incubator. Experiments were conducted in 48-well plates and cells were seated at a density of 5×10^4 per well. After 24 hours, the BEGM medium was replaced with RPMI-1640 medium and incubated for an additional 24 hours. Liposomes were prepared as described above. […] Subsequently, media were collected, diluted and an enzyme-linked immunosorbent assay (ELISA) was performed to quantify IL-8 release by cells.
TLR 5 is an extracellular member of the TLR family. […] To address whether xylitol analogs antagonize TLR activation due to disruption or destruction of all membrane signaling, PX lipids were assessed at the highest concentration used in experiments reported in this example in human bronchial epithelial cells, BEAS2B, for antagonism of flagellin activation of TLR 5. The cytokine, IL-8, was quantified as an output of TLR 5 activation.

Row | SMILES | inhibition of viral attachment to HEp2 cells (RSV [1]) | TLR2/6 antagonist activity (TLR 2/6) | TLR9 antagonist activity (TLR 9) | reduction of RSV plaque formation (RSV [2]; 50 μg/mL lipid) | reduction of RSV viral infection by a factor of (RSV [2]; 50 μg/ml lipid, 10^4 infectious virus/ml) | TLR5 antagonist activity (TLR 5)
1 | CCCCCCC=CCCCCCCCC(=O)OCC(COP(=O)(O)OCC(O)C(O)C(O)CO)OC(=O)CCCCCCCC=CCCCCCC (mixture of isomers) [16:1 DPPX, sn-1-palmitoleoyl, sn-2-palmitoleoyl sn-3 glycerol phosphoxylitol] | 80-90% |  |  |  |  | 
2 | CCCCCCCCC=CCCCCCCCCOCC(COP(=O)(O)OCC(O)C(O)C(O)CO)OCCCCCCCCC=CCCCCCCCC (mixture of isomers) [18:1 DEPX, sn-1-O-octadecenyl, sn-2-O-octadecenyl sn-3 glycerol phosphoxylitol] | 80-90% | − | − | ≥ 3 log units | 10^3-10^4 | −
3 | CCCCCCCCCCCCCCOC[C@H](COP(=O)(O)OCC(O)C(O)C(O)CO)OCCCCCCCCCCCCCC (mixture of isomers) [14:0 DEPX, sn-1-O-myristyl, sn-2-O-myristyl sn-3 glycerol phosphoxylitol] | 80-90% |  |  |  |  | 
4 | CCCCCCCC/C=C\CCCCCCCC(=O)O[C@H](COC(=O)CCCCCCCCCCCCCCC)COP(=O)(O)OCC(O)C(O)C(O)CO (stereo partly drawn) [POPX, sn-1-palmitoyl, sn-2-oleoyly sn-3 glycerol phosphoxylitol] | 80-90% |  |  |  |  | 
